In PMC2791863 one finds binding data, which are given here for seven molecules.

Sequences of proteins named here, by UniProt entry; tags and fusion partners are left off. Residues count along the entry.
UniProt P15187, residues 1-296: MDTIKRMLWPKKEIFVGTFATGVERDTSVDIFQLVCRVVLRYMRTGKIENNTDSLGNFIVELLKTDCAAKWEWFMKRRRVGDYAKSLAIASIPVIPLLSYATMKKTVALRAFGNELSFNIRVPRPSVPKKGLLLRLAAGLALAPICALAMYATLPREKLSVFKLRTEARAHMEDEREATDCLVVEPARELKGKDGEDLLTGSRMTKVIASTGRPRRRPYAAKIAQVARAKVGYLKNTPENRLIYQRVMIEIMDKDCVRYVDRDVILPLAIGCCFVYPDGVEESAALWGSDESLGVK
UniProt P10591: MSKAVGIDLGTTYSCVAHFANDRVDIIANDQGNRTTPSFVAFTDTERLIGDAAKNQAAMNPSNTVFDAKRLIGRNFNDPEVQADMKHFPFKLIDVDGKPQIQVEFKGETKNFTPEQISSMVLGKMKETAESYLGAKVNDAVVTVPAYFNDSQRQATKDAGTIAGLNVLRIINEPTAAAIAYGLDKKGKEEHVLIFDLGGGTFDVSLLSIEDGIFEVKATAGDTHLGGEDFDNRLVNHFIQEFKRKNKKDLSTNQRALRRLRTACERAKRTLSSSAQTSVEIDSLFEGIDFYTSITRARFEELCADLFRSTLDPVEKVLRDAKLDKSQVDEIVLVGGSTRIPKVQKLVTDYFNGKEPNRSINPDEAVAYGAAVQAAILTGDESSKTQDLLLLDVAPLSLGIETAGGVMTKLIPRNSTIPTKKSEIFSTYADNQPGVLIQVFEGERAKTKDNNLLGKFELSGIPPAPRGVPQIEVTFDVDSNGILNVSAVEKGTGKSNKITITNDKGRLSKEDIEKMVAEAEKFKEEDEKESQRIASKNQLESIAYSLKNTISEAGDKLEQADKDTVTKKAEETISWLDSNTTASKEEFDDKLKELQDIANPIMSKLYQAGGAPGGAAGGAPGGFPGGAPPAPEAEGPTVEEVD
UniProt Q9LHG8, residues 1-186: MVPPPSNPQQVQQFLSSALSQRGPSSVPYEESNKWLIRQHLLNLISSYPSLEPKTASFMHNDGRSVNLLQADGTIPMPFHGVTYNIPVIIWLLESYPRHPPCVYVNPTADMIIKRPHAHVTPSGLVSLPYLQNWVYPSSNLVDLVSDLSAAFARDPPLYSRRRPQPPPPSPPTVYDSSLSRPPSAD
UniProt Q9FFY6, residues 1-175: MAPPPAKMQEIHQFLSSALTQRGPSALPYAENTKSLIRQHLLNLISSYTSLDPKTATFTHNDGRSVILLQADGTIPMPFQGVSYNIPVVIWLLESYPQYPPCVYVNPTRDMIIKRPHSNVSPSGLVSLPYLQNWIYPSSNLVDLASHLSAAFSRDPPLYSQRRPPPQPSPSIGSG

Where two headings read alike, the source gives them in different places. These are yes or no findings as the source states them, for the method shown. For some of these results: In cells and extracts the contact can be indirect. Some entries that bind do so weakly or less than the wild type. For some of these results: Where a sequence is shown, tags or fusion partners need not be part of it.

The target in assay [1] is p33 replication protein (split-ubiquitin bait, pGAD-BT2-N-His33) (not stated (TBSV p33 in the results; the p33 of pGBK-His33 is called CNV p33 in the methods)) (UniProt P15187). Briefly: two-hybrid; split-ubiquitin assay (Dualmembrane kit 3); bait p33 co-expressed with NubG prey proteins in wt (NMY51) or vps4Δ yeast; interactions scored by growth on Trp-/Leu-/His-/Ade- plates.

The target is the same in assay [2]. The assay is described as above. The source holds these as a separate data set.
The target of assay [3] is p33 replication protein tagged with FLAG and 6xHis (p33HF) (not stated (TBSV p33 in the results; the p33 of pGBK-His33 is called CNV p33 in the methods)) (UniProt P15187). In words: co-IP; p33HF purified from yeast extracts on anti-FLAG M2 agarose (washing at room temperature); co-purified 6xHA-tagged proteins detected by Western blot with anti-HA antibody. On the technique in general: Immunoblotting shows a protein as a band on a membrane.

For “Ssa1p, the yeast heat shock protein 70 (split-ubiquitin prey) (from UniProt P10591 1-642)”, in assay [1], the binding result was “binds”.

“A. thaliana UEV-1 (UEV domain of the Vps23p homologue At3g12400, aa 1-186) (from UniProt Q9LHG8 1-186) (domain or fragment)”: in assay [1], the binding result was “binds”.

Turning to “A. thaliana UEV-2 (UEV domain of the Vps23p homologue At5g13860, aa 1-175) (from UniProt Q9FFY6 1-175) (domain or fragment)”, in assay [1], the binding result was “binds”.

B1: Vps23p ESCRT-I protein (yeast, split-ubiquitin prey pPR-N-VPS23) (protein, UniProt P25604 1-385)
chain: MSANGKISVPEAVVNWLFKVIQPIYNDGRTTFHDSLALLDNFHSLRPRTRVFTHSDGTPQLLLSIYGTISTGEDGSSPHSIPVIMWVPSMYPVKPPFISINLENFDMNTISSSLPIQEYIDSNGWIALPILHCWDPAAMNLIMVVQELMSLLHEPPQDQAPSLPPKPNTQLQQEQNTPPLPPKPKSPHLKPPLPPPPPPQPASNALDLMDMDNTDISPTNHHEMLQNLQTVVNELYREDVDYVADKILTRQTVMQESIARFHEIIAIDKNHLRAVEQAIEQTMHSLNAQIDVLTANRAKVQQFSSTSHVDDEDVNSIAVAKTDGLNQLYNLVAQDYALTDTIECLSRMLHRGTIPLDTFVKQGRELARQQFLVRWHIQRITSPLS
Regarding B1, the binding result in assay [2] is “binds weakly”.

B2: HA-tagged UEV domain of Vps23p (UEV-6xHA, chromosomal) (domain or fragment, UniProt P25604 12-161)
chain: AVVNWLFKVIQPIYNDGRTTFHDSLALLDNFHSLRPRTRVFTHSDGTPQLLLSIYGTISTGEDGSSPHSIPVIMWVPSMYPVKPPFISINLENFDMNTISSSLPIQEYIDSNGWIALPILHCWDPAAMNLIMVVQELMSLLHEPPQDQAP
With B2, the binding result in assay [3] was “binds”.

B3: HA-tagged Bro1p (Bro1-6xHA, chromosomal) (protein, UniProt P48582 1-844)
chain: MKPYLFDLKLKDTEKLDWKKGLSSYLKKSYGSSQWRTFYDEKATSELDHLRNNANGELAPSSLSEQNLKYYSFLEHLYFRLGSKGSRLKMDFTWYDAEYSSAQKGLKYTQHTLAFEKSCTLFNIAVIFTQIARENINEDYKNSIANLTKAFSCFEYLSENFLNSPSVDLQSENTRFLANICHAEAQELFVLKLLNDQISSKQYTLISKLSRATCNLFQKCHDFMKEIDDDVAIYGEPKWKTTVTCKLHFYKSLSAYYHGLHLEEENRVGEAIAFLDFSMQQLISSLPFKTWLVEFIDFDGFKETLEKKQKELIKDNDFIYHESVPAVVQVDSIKALDAIKSPTWEKILEPYMQDVANKCDSLYRGIIPLDVYEKESIYSEEKATLLRKQVEETETANLEYSSFIEFTNLPRLLSDLEKQFSDGNIFSNTDTQGQLMRDQIQTWCKFIQTNEFRDIEEQMNKIVFKRKQILEILSALPNDQKENVTKLKSSLVAASNSDEKLFACVKPHIVEINLLNDNGKIWKKFDEFNRNTPPQPSLLDIDDTKNDKILELLKQVKGHAEDLRTLKEERSRNLSELRDEINNDDITKLLIINKGKSDVELKDLFEVELEKFEPLSTRIEATIYKQSSMIDDIKAKLDEIFHLSNFKDKSSGEEKFLEDRKNFFDKLQEAVKSFSIFASDLPKGIEFYDSLFNMSRDLAERVRVAKQTEDSTANSPAPPLPPLDSKASVVGGPPLLPQKSAAFQSLSRQGLNLGDQFQNLKISAGSDLPQGPGIPPRTYEASPYAATPTMAAPPVPPKQSQEDMYDLRRRKAVENEERELQENPTSFYNRPSVFDENMYSKYSS
Regarding B3, the binding result in assay [3] is “binds”.

B4: Bro1p accessory ESCRT protein (yeast, split-ubiquitin prey pPR-C-BRO1) (protein, UniProt P48582 1-844)
chain: B3 chain
Turning to B4, in assay [2], the binding result is on record as “binds weakly”.
